Measurements published in the supplement of paper PMC11732987, “Enantioselective OTUD7B fragment discovery through chemoproteomics screening and high-throughput optimisation” (Communications Chemistry, 2025).
Some of the results follow. The data scatter; read single values as rough.

By UniProt entry, the sequences of proteins in these tests, tags left out. Where a name states a change or a piece, a line headed by the entry shows the natural chain unless it says otherwise. Residues count along the entry.
UniProt Q8IYS1: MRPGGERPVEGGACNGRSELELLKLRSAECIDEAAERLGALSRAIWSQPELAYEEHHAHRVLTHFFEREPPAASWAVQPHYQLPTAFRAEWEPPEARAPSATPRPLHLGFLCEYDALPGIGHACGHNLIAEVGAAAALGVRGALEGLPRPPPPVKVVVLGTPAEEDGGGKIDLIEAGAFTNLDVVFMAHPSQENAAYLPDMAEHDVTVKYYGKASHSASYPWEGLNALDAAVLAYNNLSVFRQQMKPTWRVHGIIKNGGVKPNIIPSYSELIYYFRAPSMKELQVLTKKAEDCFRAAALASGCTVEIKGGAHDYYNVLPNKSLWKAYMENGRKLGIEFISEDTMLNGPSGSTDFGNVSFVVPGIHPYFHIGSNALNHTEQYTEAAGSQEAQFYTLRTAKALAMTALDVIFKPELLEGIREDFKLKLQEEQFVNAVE
UniProt Q8IWE5: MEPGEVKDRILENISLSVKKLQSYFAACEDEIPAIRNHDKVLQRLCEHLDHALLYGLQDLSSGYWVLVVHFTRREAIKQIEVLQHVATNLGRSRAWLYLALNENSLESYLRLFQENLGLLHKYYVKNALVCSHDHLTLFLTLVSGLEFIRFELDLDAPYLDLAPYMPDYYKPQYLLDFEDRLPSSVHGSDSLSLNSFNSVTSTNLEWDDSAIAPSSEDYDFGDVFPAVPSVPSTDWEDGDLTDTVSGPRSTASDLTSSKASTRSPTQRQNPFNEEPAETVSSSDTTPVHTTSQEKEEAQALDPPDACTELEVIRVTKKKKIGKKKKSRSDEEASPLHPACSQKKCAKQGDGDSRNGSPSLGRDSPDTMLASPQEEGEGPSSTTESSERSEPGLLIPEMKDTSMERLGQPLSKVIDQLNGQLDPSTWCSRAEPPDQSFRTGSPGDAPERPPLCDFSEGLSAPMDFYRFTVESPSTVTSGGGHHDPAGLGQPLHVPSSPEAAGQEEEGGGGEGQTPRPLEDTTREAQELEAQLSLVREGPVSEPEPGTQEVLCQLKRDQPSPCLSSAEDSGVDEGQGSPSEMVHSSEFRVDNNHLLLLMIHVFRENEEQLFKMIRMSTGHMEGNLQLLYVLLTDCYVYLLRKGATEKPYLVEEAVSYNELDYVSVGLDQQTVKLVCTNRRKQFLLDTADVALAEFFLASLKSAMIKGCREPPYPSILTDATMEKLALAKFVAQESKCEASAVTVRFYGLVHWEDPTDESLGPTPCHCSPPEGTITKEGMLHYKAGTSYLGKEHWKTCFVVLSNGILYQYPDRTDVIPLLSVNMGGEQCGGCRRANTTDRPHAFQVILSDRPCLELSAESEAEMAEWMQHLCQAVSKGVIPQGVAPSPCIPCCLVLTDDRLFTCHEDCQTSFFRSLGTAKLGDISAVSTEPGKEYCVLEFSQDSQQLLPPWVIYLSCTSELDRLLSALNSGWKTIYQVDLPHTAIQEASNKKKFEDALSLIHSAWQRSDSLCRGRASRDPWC
UniProt O95602, whole entry, looked up: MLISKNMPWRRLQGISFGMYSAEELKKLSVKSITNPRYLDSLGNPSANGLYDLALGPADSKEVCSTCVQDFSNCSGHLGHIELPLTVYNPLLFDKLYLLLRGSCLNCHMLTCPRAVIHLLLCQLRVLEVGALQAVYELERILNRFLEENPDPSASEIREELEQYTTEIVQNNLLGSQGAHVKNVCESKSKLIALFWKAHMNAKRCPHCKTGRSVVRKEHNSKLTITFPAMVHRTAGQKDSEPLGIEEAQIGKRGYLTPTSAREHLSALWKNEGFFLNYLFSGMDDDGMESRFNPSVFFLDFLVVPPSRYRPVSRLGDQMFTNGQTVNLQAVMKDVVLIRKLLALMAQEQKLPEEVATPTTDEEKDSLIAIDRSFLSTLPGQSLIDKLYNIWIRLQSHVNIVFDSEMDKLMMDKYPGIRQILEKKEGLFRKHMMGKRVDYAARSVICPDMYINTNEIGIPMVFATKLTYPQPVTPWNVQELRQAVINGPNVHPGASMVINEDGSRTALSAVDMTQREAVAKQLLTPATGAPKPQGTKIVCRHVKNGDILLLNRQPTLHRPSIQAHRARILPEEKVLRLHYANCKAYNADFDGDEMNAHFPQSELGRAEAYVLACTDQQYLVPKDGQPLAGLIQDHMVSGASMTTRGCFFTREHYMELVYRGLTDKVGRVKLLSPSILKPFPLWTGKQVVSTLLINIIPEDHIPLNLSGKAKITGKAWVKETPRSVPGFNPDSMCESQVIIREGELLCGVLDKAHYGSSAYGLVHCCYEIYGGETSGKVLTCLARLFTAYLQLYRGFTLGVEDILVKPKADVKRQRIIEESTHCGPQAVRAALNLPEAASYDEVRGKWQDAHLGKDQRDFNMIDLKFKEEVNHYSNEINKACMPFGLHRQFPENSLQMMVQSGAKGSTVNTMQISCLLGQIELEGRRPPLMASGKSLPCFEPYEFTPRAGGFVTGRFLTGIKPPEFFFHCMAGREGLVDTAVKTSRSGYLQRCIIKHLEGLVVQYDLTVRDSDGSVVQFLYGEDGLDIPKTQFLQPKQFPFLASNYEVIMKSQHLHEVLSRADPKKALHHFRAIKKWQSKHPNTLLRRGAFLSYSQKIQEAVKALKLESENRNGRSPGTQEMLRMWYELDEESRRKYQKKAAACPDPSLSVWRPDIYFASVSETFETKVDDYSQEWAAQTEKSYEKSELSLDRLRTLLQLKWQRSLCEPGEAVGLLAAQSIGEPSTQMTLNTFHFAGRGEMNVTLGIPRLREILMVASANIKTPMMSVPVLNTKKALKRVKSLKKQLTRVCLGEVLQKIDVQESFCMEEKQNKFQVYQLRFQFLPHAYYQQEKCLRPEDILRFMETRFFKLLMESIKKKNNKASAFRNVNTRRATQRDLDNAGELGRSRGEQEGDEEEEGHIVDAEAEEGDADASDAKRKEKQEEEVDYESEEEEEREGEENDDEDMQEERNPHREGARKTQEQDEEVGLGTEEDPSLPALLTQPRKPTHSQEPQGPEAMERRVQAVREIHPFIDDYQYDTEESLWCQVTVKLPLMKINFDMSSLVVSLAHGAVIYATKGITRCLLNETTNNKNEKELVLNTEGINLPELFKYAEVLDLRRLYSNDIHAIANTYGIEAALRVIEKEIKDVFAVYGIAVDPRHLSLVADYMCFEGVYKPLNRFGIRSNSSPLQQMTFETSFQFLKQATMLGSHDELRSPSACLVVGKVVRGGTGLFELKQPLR
UniProt P37287: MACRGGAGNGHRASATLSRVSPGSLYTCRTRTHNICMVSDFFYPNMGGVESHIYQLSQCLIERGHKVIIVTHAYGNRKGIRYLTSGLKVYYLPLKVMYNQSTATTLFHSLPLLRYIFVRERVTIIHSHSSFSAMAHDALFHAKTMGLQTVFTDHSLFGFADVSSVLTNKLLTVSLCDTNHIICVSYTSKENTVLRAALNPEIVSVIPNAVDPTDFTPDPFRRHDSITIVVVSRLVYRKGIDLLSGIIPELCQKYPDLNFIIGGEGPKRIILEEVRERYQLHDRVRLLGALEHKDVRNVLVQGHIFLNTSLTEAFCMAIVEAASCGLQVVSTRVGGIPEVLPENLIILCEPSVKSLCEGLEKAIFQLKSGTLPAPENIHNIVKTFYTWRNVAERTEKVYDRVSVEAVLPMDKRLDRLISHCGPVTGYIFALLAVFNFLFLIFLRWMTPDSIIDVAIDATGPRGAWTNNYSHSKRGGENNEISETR
UniProt O75928, whole entry, looked up: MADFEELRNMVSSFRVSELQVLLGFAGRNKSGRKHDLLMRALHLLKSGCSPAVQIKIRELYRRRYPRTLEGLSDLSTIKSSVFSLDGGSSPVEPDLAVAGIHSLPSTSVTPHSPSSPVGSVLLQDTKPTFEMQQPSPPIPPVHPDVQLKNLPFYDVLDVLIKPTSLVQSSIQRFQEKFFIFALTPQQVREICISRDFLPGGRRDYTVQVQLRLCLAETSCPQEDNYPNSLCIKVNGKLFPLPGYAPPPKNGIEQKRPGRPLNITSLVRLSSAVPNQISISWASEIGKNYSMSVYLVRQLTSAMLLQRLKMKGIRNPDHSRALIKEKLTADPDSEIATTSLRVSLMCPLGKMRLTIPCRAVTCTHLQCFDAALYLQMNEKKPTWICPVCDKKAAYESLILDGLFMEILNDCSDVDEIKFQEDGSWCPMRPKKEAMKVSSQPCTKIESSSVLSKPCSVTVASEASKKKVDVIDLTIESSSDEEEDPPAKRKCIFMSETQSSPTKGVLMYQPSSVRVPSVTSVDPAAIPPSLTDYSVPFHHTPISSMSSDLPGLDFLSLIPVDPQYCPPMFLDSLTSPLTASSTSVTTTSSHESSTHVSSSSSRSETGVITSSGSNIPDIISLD
UniProt Q9UBT6: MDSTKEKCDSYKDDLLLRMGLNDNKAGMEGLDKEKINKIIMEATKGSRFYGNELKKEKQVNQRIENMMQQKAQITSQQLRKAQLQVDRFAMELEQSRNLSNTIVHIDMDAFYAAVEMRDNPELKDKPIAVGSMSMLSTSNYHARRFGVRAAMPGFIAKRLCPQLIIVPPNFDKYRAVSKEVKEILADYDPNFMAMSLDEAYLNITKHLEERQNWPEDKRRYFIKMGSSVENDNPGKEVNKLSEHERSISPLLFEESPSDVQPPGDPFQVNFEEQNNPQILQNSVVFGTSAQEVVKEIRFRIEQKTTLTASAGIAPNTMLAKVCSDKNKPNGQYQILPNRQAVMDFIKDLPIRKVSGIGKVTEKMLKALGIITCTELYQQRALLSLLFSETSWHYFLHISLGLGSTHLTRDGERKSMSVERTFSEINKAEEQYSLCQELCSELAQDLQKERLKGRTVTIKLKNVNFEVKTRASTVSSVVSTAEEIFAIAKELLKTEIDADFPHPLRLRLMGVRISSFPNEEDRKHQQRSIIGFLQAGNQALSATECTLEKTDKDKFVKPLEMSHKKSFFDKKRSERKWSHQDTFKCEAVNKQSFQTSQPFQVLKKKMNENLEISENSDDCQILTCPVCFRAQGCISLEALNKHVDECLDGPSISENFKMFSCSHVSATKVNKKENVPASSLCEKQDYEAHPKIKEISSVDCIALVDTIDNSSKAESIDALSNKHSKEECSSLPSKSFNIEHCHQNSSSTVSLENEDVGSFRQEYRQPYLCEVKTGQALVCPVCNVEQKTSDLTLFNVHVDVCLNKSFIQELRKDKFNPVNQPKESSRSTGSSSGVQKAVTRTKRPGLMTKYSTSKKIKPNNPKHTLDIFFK
UniProt O75925, 421-453: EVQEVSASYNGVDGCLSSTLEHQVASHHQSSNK
UniProt Q7Z3K3: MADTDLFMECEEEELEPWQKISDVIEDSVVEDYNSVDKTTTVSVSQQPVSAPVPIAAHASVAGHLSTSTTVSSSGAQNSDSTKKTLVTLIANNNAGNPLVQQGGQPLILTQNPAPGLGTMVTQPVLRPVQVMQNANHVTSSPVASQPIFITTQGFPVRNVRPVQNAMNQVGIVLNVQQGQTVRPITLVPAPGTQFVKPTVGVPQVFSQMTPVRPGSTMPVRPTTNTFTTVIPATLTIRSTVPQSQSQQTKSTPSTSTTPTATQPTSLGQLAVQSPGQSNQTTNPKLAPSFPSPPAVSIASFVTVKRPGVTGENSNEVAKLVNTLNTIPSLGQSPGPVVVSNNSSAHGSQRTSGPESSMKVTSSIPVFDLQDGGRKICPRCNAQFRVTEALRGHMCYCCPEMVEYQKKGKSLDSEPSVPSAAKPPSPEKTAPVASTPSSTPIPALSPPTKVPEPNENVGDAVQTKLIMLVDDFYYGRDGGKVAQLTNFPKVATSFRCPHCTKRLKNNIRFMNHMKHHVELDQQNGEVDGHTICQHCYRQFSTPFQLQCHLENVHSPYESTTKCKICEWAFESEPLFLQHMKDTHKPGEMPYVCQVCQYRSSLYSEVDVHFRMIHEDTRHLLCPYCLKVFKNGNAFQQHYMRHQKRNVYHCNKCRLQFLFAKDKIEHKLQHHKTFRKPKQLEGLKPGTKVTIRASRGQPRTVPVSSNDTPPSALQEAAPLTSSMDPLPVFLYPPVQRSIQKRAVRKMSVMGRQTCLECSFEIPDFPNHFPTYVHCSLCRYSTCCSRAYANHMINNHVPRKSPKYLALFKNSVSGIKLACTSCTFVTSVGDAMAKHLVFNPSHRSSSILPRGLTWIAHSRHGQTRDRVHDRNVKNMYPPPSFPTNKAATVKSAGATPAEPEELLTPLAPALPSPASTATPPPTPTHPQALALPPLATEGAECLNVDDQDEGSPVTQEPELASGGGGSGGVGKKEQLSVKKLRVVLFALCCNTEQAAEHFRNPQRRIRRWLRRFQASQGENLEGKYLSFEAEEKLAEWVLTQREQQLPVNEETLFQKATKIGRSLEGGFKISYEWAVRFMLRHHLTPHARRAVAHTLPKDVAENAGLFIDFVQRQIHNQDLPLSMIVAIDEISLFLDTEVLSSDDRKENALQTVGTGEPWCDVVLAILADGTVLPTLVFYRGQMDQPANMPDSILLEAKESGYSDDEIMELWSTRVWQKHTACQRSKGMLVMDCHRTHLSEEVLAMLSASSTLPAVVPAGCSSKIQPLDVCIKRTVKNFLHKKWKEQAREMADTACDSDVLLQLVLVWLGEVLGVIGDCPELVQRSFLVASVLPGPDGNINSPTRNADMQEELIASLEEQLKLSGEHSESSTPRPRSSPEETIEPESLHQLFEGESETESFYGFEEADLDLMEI

compound: ClCC(=O)N[C@@H]1CCCc2ccccc12; assay: log2 mean competition ratio of IA-DTB cysteine labelling (DMSO/compound) (log2 ratio); higher = stronger cysteine engagement by compound; settings: 50 µM; treatment time: 4 h; cell line lysate: HEK293T
Protocol: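 IA-DTB competitive cysteine chemoproteomics in HEK293T RIPA lysate. Lysates were treated with compound 29 or 30 at 50 or 200 µM for 4 h, then IA-DTB (500 µM, 1 h), trypsin-digested, NeutrAvidin-enriched and analysed by diaPASEF. Competition ratio = intensity DMSO / intensity compound (n=4 treated, n=64 DMSO); binding: mean log2 CR ≥ 1 and p ≤ 0.05 plus QC filters. Target is the cysteine site.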

| Target | log2 mean competition ratio |
| --- | --- |
| PM20D2 C303 (UniProt Q8IYS1) | -0.0479 |
| PLEKHM2 C735 (UniProt Q8IWE5) | -0.305 |
| POLR1A C822 (UniProt O95602) | -0.025 |
| PIAS4 C326 (UniProt Q8N2W9) | -0.11 |
| POLR1B C847 (UniProt Q9H9Y6) | 0.0636 |
| PIGA C28 (UniProt P37287) | 0.704 |
| PLS3 C167 | 0.11 |
| PIAS2 C441 (UniProt O75928) | -0.0469 |
| PKN3 C131 (UniProt Q6P5Z2) | -0.247 |
| PIGT C272 | -0.119 |
| POLK C8 (UniProt Q9UBT6) | -0.0304 |
| PIAS1 C435 (UniProt O75925) | -0.634 |
| POLR1A C937 (UniProt O95602) | 0.213 |
| POLR1A C582 (UniProt O95602) | 0.262 |
| PNKP C353 (UniProt Q96T60) | -0.0441 |
| PIGH C26 (UniProt Q14442) | 0.079 |
| PIAS3 C327 | -0.113 |
| PHF3 C276 (UniProt Q92576) | -0.354 |
| PITHD1 C187 (UniProt Q9GZP4) | 0.163 |
| POGZ C1230 (UniProt Q7Z3K3) | 0.289 |

same assay, conditions: 200 µM; treatment time: 4 h; cell line lysate: HEK293T

| Target | log2 mean competition ratio |
| --- | --- |
| PM20D2 C303 (UniProt Q8IYS1) | 0.0997 |
| PLEKHM2 C735 (UniProt Q8IWE5) | -0.00149 |
| POLR1A C822 (UniProt O95602) | -0.138 |
| PIAS4 C326 (UniProt Q8N2W9) | -0.289 |
| POLR1B C847 (UniProt Q9H9Y6) | 0.318 |
| PIGA C28 (UniProt P37287) | 0.463 |
| PLS3 C167 | 0.184 |
| PIAS2 C441 (UniProt O75928) | 0.108 |
| PKN3 C131 (UniProt Q6P5Z2) | -0.0157 |
| PIGT C272 | -0.0415 |
| POLK C8 (UniProt Q9UBT6) | 0.327 |
| PIAS1 C435 (UniProt O75925) | 0.472 |
| POLR1A C937 (UniProt O95602) | -0.264 |
| POLR1A C582 (UniProt O95602) | -0.00898 |
| PNKP C353 (UniProt Q96T60) | 0.0748 |
| PIGH C26 (UniProt Q14442) | 0.209 |
| PIAS3 C327 | -0.134 |
| PHF3 C276 (UniProt Q92576) | 0.38 |
| PITHD1 C187 (UniProt Q9GZP4) | 0.116 |
| POGZ C1230 (UniProt Q7Z3K3) | 0.137 |
